These are yes or no findings as the source states them, for the method shown. In cells and extracts the contact can be indirect.
How the values were obtained:
[1] = biological target: C/EBPα (mouse (endogenous in AML12)) (UniProt P53566); assay: co-IP
[2] = biological target: Forkhead box O1 (FOXO1) (mouse (endogenous in AML12)) (UniProt Q9R1E0); assay: co-IP

Protein sequences, listed by entry. Tags and fused reporters are not part of them.
UniProt P53566: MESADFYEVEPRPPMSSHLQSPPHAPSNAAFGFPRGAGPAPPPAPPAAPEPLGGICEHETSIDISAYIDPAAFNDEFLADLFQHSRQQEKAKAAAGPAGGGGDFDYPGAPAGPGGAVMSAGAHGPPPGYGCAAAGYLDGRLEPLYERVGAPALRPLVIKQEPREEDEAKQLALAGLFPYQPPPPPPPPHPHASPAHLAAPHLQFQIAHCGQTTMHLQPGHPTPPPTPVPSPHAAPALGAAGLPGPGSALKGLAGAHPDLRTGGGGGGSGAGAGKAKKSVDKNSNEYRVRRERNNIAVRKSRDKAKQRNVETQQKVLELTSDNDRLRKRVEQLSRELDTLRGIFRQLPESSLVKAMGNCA
UniProt Q9R1E0: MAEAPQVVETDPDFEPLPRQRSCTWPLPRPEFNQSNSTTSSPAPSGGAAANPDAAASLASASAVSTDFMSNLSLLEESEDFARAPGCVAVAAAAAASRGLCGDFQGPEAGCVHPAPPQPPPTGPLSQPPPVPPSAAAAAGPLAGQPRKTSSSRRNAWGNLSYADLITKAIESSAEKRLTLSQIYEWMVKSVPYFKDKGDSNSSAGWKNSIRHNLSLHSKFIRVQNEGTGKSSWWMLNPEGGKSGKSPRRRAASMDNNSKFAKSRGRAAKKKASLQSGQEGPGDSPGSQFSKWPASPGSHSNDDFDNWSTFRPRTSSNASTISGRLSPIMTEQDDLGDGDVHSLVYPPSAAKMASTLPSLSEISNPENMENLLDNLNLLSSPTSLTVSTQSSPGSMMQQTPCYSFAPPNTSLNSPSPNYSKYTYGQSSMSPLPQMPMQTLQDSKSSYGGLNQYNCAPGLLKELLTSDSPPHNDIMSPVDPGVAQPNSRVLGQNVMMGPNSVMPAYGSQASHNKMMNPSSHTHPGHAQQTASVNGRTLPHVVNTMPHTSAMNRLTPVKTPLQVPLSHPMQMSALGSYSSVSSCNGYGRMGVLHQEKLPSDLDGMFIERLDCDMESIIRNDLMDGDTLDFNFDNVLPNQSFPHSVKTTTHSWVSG
UniProt Q62432: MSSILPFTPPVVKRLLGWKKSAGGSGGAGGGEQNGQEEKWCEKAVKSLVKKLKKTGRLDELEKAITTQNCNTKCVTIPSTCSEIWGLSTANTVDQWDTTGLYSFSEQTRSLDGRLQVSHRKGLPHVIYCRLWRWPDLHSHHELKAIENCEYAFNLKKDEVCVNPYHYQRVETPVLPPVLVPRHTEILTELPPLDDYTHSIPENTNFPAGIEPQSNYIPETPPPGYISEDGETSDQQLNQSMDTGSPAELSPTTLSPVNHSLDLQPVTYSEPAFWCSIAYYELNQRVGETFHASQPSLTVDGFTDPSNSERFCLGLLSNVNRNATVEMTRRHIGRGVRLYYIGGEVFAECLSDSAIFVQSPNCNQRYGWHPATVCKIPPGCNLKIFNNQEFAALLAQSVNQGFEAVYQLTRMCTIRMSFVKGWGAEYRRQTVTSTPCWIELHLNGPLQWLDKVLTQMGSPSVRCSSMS
UniProt Q8BUN5: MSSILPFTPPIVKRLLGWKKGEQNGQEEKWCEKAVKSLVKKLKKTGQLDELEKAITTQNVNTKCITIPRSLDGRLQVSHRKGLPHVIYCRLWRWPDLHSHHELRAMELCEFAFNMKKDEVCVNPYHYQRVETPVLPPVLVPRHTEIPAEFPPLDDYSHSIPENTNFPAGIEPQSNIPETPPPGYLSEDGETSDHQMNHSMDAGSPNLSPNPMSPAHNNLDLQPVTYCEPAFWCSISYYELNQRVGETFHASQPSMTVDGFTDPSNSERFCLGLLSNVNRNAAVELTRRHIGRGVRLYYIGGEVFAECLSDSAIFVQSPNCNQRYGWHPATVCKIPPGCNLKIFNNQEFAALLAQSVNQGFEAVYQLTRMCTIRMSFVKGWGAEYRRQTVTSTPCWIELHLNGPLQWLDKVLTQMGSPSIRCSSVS

SMAD2 (from UniProt Q62432 1-467)
binding [1]: no binding
binding [2]: no binding

SMAD3 (from UniProt Q8BUN5 1-425)
binding [1]: no binding

Reference: article doi:10.1101/2023.01.12.523351
